Results are given in words; binding and its absence hold for the method and conditions named. Some results given as binding are weak or reduced against the parent protein; the word gives no strength.
Target: T1, Staphylococcus aureus catabolite control protein A (CcpA), wild type (Staphylococcus aureus) (UniProt Q5HF38)
T1 sequence: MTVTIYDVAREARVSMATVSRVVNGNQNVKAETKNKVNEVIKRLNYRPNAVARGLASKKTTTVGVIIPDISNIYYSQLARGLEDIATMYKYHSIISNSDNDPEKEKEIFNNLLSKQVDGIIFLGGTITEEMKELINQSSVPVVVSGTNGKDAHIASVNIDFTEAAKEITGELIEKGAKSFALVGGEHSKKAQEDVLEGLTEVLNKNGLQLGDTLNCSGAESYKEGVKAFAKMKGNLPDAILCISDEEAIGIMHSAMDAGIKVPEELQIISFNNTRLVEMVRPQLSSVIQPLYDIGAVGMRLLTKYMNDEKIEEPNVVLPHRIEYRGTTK
Assay: native gel or EMSA; native PAGE of the DNA-CcpA-(Hpr-P) ternary complex, in vitro, without Ag+; both purified

B1: phosphorylated HPr (protein, UniProt P0A0E3 1-88)
chain: MEQNSYVIIDETGIHARPATMLVQTASKFDSDIQLEYNGKKVNLKSIMGVMSLGVGKDAEITIYADGSDESDAIQAISDVLSKEGLTK
modifications: phosphorylated (residue not stated)
In the case of B1, the binding is reported as “binds”.
